Laboratory results taken from patent publication US20200055918A1, “NOVEL MINOR HISTOCOMPATIBILITY ANTIGENS AND USES THEREOF” (UNIVERSITÉ DE MONTRÉAL, priority 2017, published 2020).

How the values were obtained:
Parameters in all cases: species or system human
B-LCL cells [1] = assay: MiHA detection by LC-MS/MS after peptide isolation by immunoprecipitation (IP, W6/32); details: first symbol of IP/MAE
B-LCL cells [2] = assay: MiHA detection by LC-MS/MS after peptide isolation by mild acid elution (MAE); details: second symbol of IP/MAE
B-ALL cells = assay: as above; details: second symbol of the cell
[3] = system: MiHA-coding genes in AML samples; assay: Expression (RPKM) of MiHA-coding genes in 179 AML samples, TCGA RNA-Seq; details: mean MiHA gene expression in primary AML samples from TCGA
[4] = system: genes coding for the identified MiHAs; assay: Ratio of MiHA gene expression in bone marrow compared to skin, public RNA-Seq data; details: relative BM/skin expression of the MiHA-coding transcripts

Row | Substance | IP (identified by immunoprecipitation) (B-LCL cells [1]) | MAE (identified by mild acid elution) (B-LCL cells [2]) | other results
1 | V/APEEARPAL (97) | ✓/✓ | ✓/✓ | –
2 | VI/TDSAELQAY (119) | ✓/✓ | ✓/✓ | –
3 | TTDKR/WTSFY (122) | ✓/✓ | ✓/✓ | –
4 | RPR/HPEDQRL (109) | ✓ | – | –
5 | RP/L/RAGPALLL (128) | ✓/✓ | ✓/✓ | –
6 | LPRGMQ/KPTEFFQSL (110) | ✓/✓ | ✓/✓ | –
7 | EEVTS/T/ASEDKRKTY (117) | ✓ | – | –
8 | S/GEMDRRNDAW (123) | ✓ | – | –
9 | TPRNTYKMTSL/V | ✓ | – | –
10 | S/YGGPLRSEY (107) | ✓ | – | –
11 | ASELHTSLH/Y (83) | ✓/✓ | ✓/✓ | –
12 | YTDSSSI/VLNY (125) | ✓ | – | –
13 | VPREYI/VRAL (94) | ✓/✓ | ✓/✓ | –
14 | LPSDDRGP/S/TL (89) | ✓ | – | –
15 | H/RESPIFKQF (92) | – | ✓ | –
16 | M/L/VELQQKAEF (106) | ✓ | – | –
17 | EEA/T/SPSQQGF (129) | ✓ | – | –
18 | SP/LYPRVKVDF (115) | ✓/✓ | ✓/✓ | –
19 | HPR/PQEQIAL (103) | ✓/✓ | ✓/✓ | –
20 | YYRTNHT/I/SVM (104) | ✓ | – | –
21 | R/QPRAPRESAQAI (113) | ✓ | – | –
22 | QE/DLIGKKEY [MiHA No. 138] | – | – | IP/MAE: detected with MAE isolation (B-ALL cells): ✓/✓
23 | FT/R/IESRVSSQQTVSY (127) | ✓ | – | –

Row | Substance | IP (identified by immunoprecipitation) (B-LCL cells [1]) | MAE (identified by mild acid elution) (B-LCL cells [2]) | other results
24 | LC/SEKPTVTTVY (90) | ✓/✓ | ✓/✓ | –
25 | R/CPTRKPLSL (124) | ✓/✓ | ✓/✓ | –
26 | NLDKNTV/MGY (98) | ✓ | – | –
27 | SPRA/VPVSPLKF (101) | ✓/✓ | ✓/✓ | –
28 | LARPA/VSAAL (111) | ✓/✓ | ✓/✓ | –
29 | REEPEKI/MIL [MiHA No. 131] | – | – | IP/MAE: detected with MAE isolation (B-ALL cells): ✓/✓
30 | SPRV/APVSPLKF (99) | ✓/✓ | ✓/✓ | –
31 | IS/PRAAAERSL (88) | ✓/✓ | ✓/✓ | –
32 | RPRARYYI/VQV (95) | ✓/✓ | ✓/✓ | –
33 | APRES/NAQAI (112) | ✓/✓ | ✓/✓ | –
34 | SL/PRPQGLSNPSTL (100) | ✓/✓ | ✓/✓ | –
35 | LPRGMQ/KPTEF (120) | ✓/✓ | ✓/✓ | –
36 | VEEADGN/HKQW (VEEADGNKQW) [MiHA No. 78] | – | – | AMLs (RPKM) [3]: 13.41 RPKM; BM/skin ratio [4]: 2.06
37 | TPRPIQSSP/L (102) | ✓ | – | –
38 | RREDV/IVLGR (RREDVVLGR) [MiHA No. 60] | – | – | AMLs (RPKM) [3]: 1.58 RPKM; BM/skin ratio [4]: 1221.00
39 | LENGAH/RAY (LENGAHAY) [MiHA No. 41] | – | – | AMLs (RPKM) [3]: 34.42 RPKM; BM/skin ratio [4]: 2.52
40 | RPPPP/SPAWL (RPPPPPAWL) [MiHA No. 59] | – | – | AMLs (RPKM) [3]: 17.23 RPKM; BM/skin ratio [4]: 2.17
41 | G/DPRPSPTRSV (GPRPSPTRSV) [MiHA No. 28] | – | – | AMLs (RPKM) [3]: 2.97 RPKM; BM/skin ratio [4]: 25.52
42 | KEMDSDQQR/T/KSY (105) | ✓ | – | –
43 | SPGK/NERHLNAL (126) | ✓ | – | –
44 | IPF/LSNPRVL (116) | ✓/✓ | ✓/✓ | –
45 | TEAG/AVQKQW (108) | ✓ | – | –
46 | TQR/SPADVIF (TQRPADVIF) [MiHA No. 76] | – | – | AMLs (RPKM) [3]: 56.09 RPKM; BM/skin ratio [4]: 3.08

Row | Substance | IP (identified by immunoprecipitation) (B-LCL cells [1]) | MAE (identified by mild acid elution) (B-LCL cells [2]) | other results
47 | AQTARQP/HPK (AQTARQPPK) [MiHA No. 13] | – | – | AMLs (RPKM) [3]: 0.37 RPKM; BM/skin ratio [4]: 11.00
48 | APKKPTGA/VDL (82) | ✓ | – | –
49 | EL/IDPSNTKALY (85) | ✓/✓ | ✓/✓ | –
50 | RTA/TDNFDDILK [MiHA No. 61] | – | – | AMLs (RPKM) [3]: 36.60 RPKM; BM/skin ratio [4]: 2.28
51 | FSEPRAI/VFY (118) | ✓ | – | –
52 | EI/LDPSNTKALY (86) | ✓/✓ | ✓/✓ | –
53 | LPRVC/RGTTL (LPRVCGTTL) [MiHA No. 42] | – | – | AMLs (RPKM) [3]: 0.372 RPKM; BM/skin ratio [4]: 11.00
54 | RP/LRKEVKEEL (114) | – | ✓ | –
55 | VPNV/EKSGAL (87) | ✓/✓ | ✓/✓ | –
56 | RPRAPRES/NAQAI (91) | ✓ | – | –
57 | AAQTARQP/HPK (AAQTARQPPK) [MiHA No. 3] | – | – | AMLs (RPKM) [3]: 0.37 RPKM; BM/skin ratio [4]: 11.00
58 | SAFADRPS/AF (96) | ✓/✓ | ✓/✓ | –
59 | EEV/LKLRQQL (84) | ✓ | – | –
60 | EPQGS/FGRQGNSL (EPQGSGRQGNSL) [MiHA No. 26] | – | – | AMLs (RPKM) [3]: 7.48 RPKM; BM/skin ratio [4]: 9.49
61 | QENQDPR/GPW (QENQDPRRW) [MiHA No. 53] | – | – | AMLs (RPKM) [3]: 8.74 RPKM; BM/skin ratio [4]: 4.289
62 | EEINLQR/INI [MiHA No. 137] | – | – | IP/MAE: detected with MAE isolation (B-ALL cells): ✓/✓
63 | NSEEHSAR/KY (NSEEHSARY) [MiHA No. 47] | – | – | AMLs (RPKM) [3]: 36.86 RPKM; BM/skin ratio [4]: 3.63
64 | APPAEKA/VPV (APPAEKAPV) [MiHA No. 8] | – | – | AMLs (RPKM) [3]: 11.70 RPKM; BM/skin ratio [4]: 22.47
65 | NSEEHSAK/RY (121) | ✓ | – | –
66 | PPSGLRLLP/LL (PPSGLRLLPL) [MiHA No. 49] | – | – | AMLs (RPKM) [3]: 114.06 RPKM; BM/skin ratio [4]: 3.88
67 | KLYSEA/GKTK (KLYSEAKTK) [MiHA No. 36] | – | – | AMLs (RPKM) [3]: 0.70 RPKM; BM/skin ratio [4]: 81.00

For some assays here: The expression values are mRNA levels of the gene; the protein chain is shown to identify it.
